Among the data in PubChem BioAssay AID248 (DTP/NCI, 2004) are T/C and survivor count values, retold here.

Molecules are shown by their SMILES. The list is a part of this screen's results and no random one: it gathers tests that were run many times, whatever their T/C, doses with no T/C, and many T/C values between a quarter and a half above the control. Other doses and runs of a compound stand elsewhere. T/C: endpoint of the treated group in % of that of the vehicle group. Some entries give survivors of the animals treated and no T/C: the source files T/C as zero there, which appears to mark a toxic dose or a test without result, not a measured value. Some survivor counts are full or nearly so, which does not show that the dose was tolerated: survival well below the control is almost never listed, so the zero probably covers shortened survival too. Survivors were counted at the toxicity check, usually on the fifth day, unless a day is given; later deaths do not show. Schedules are NCI's codes, read here as Q, the interval in days (D) or hours (H), X, the number of doses. Some schedules carry Z or #; the key to these is not given. Some doses were run more than once; their values stand side by side, smallest first. For survival time, the PubChem record calls one and a half times the control and up active, and a quarter to a half above the control has no call in these data; cut-offs in other NCI protocols can differ. Some T/C values carry the count of animals alive at the toxicity check (mostly the fifth day); without a count, all were alive then.

This test deals with L1210 leukemia ip in BDF1 mice, survival T/C. The experiment in a line: NCI In Vivo Anticancer Drug Screen. Data for tumor model L1210 Leukemia (intraperitoneal) in B6D2F1 (BDF1) mice. The note with it: higher T/C = longer survival.
Where [1] appears, read: T/C endpoint: mean survival time, dose: 60.0 mg/kg/injection, schedule: Q01DX Z (ip), vehicle: methylcellulose (MC).
[2] abbreviates: T/C endpoint: mean survival time, dose: 100.0 mg/kg/injection, schedule: Q01DX001 (ip), vehicle: saline.
The mark [3] stands for this setting: T/C endpoint: mean survival time, dose: 100.0 mg/kg/injection, schedule: Q04DX003 (ip), vehicle: saline.
Where [4] appears, read: T/C endpoint: mean survival time, dose: 200.0 mg/kg/injection, schedule: Q01DX001 (ip), vehicle: saline.
Where [5] appears, read: T/C endpoint: mean survival time, dose: 400.0 mg/kg/injection, schedule: Q01DX001 (ip), vehicle: saline.
Setting [6] is: T/C endpoint: mean survival time, dose: 400.0 mg/kg/injection, schedule: Q01DX009 (ip), vehicle: saline with Tween-80.
The mark [7] stands for this setting: T/C endpoint: mean survival time, dose: 400.0 mg/kg/injection, schedule: Q01DX009 (ip), vehicle: Klucel (hydroxypropylcellulose) (HPC).
Where [8] appears, read: T/C endpoint: mean survival time, dose: 400.0 mg/kg/injection, schedule: Q04DX003 (ip), vehicle: saline with Tween-80.
The mark [9] stands for this setting: T/C endpoint: mean survival time, dose: 200.0 mg/kg/injection, schedule: Q04DX003 (ip), vehicle: saline.
Setting [10] is: T/C endpoint: mean survival time, dose: 400.0 mg/kg/injection, schedule: Q04DX003 (ip), vehicle: saline.

Consider `C(CC1CO1)C1CO1` (centres undefined), for which the T/C runs as follows: (T/C endpoint: mean survival time, dose: 16.0 mg/kg/injection, schedule: Q01DX001 (ip), vehicle: acetone) 129 % of control; (T/C endpoint: mean survival time, dose: 18.0 mg/kg/injection, schedule: Q01DX Z (ip), vehicle: methylcellulose (MC)) 125 % of control; (T/C endpoint: mean survival time, dose: 24.0 mg/kg/injection, schedule: Q01DX009 (ip), vehicle: acetone) 129 % of control; (T/C endpoint: mean survival time, dose: 27.0 mg/kg/injection, schedule: Q01DX Z (ip), vehicle: methylcellulose (MC)) 143 % of control; (T/C endpoint: mean survival time, dose: 33.0 mg/kg/injection, schedule: Q01DX009 (ip), vehicle: acetone) 136 % of control; (T/C endpoint: mean survival time, dose: 36.0 mg/kg/injection, schedule: Q01DX009 (ip), vehicle: acetone) 134 % of control. The T/C by setting is: (T/C endpoint: mean survival time, dose: 40.0 mg/kg/injection, schedule: Q01DX Z (ip), vehicle: methylcellulose (MC)) 145 % of control; (T/C endpoint: mean survival time, dose: 50.0 mg/kg/injection, schedule: Q01DX001 (ip), vehicle: saline) 136 % of control; (T/C endpoint: mean survival time, dose: 50.0 mg/kg/injection, schedule: Q04DX003 (ip), vehicle: acetone) 126 % of control; (T/C endpoint: mean survival time, dose: 54.0 mg/kg/injection, schedule: Q04DX003 (ip), vehicle: acetone) 129 % of control; under setting [1], 149 % of control; (T/C endpoint: mean survival time, dose: 66.0 mg/kg/injection, schedule: Q04DX003 (ip), vehicle: saline) 132 % of control. Moreover, the T/C was 125 % of control (T/C endpoint: mean survival time, dose: 75.0 mg/kg/injection, schedule: Q01DX001 (ip), vehicle: saline); 133 % of control [3 of 4 alive] under setting [2]; 128 and 137 % of control under setting [3]. The survivor count was 3 of 6 (T/C endpoint: mean survival time, dose: 21.0 mg/kg/injection, schedule: Q01DX009 (ip), vehicle: acetone); 4 of 6 under setting [1]; 1 of 6 (T/C endpoint: mean survival time, dose: 90.0 mg/kg/injection, schedule: Q01DX Z (ip), vehicle: methylcellulose (MC)); 0 of 6 (T/C endpoint: mean survival time, dose: 150.0 mg/kg/injection, schedule: Q01DX009 (ip), vehicle: acetone); 3 of 6 (T/C endpoint: mean survival time, dose: 150.0 mg/kg/injection, schedule: Q04DX003 (ip), vehicle: saline sonified); 3 of 6 (T/C endpoint: mean survival time, dose: 150.0 mg/kg/injection, schedule: Q04DX003 (ip), vehicle: saline). The survivor count under setting [4] is on record as 0 of 4; the survivor count (T/C endpoint: mean survival time, dose: 200.0 mg/kg/injection, schedule: Q04DX003 (ip), vehicle: acetone) was 0 of 6; the survivor count (T/C endpoint: mean survival time, dose: 225.0 mg/kg/injection, schedule: Q01DX009 (ip), vehicle: acetone) is 0 of 6; the survivor count (T/C endpoint: mean survival time, dose: 335.0 mg/kg/injection, schedule: Q01DX009 (ip), vehicle: acetone) is given as 0 of 6; the survivor count under setting [5] was 0 of 4 and 0 of 6.
Take `O=[N+]([O-])CC(OCCCc1ccccc1)C(Cl)(Cl)Cl` (centres undefined): the survivor count under setting [6] is recorded as 2 of 5.
`CCn1ccc2c(N)ncnc21`: the survivor count is, setting by setting: under setting [2], 2 of 4; under setting [4], 0 of 4; under setting [5], 0 of 4.
`CC(O)CSc1ccccc1` (centres undefined): the survivor count under setting [6] is given as 1 of 6.
Turning to `CC(=O)N1CCC(Cc2ccccc2)CC1`, the survivor count is, setting by setting: (T/C endpoint: mean survival time, dose: 150.0 mg/kg/injection, schedule: Q01DX009 (ip), vehicle: saline with Tween-80) 3 of 6; (T/C endpoint: mean survival time, dose: 300.0 mg/kg/injection, schedule: Q01DX009 (ip), vehicle: saline with Tween-80) 2 of 6.
Regarding `Cc1ccc2c(c1)-c1[nH]c3ccccc3c1CS2`, the survivor count (T/C endpoint: mean survival time, dose: 400.0 mg/kg/injection, schedule: Q04DX003 (ip), vehicle: acetone) is on record as 0 of 6.
Regarding `Cc1cccc(NC(=O)Nc2cccc(Cl)c2Cl)n1`, the survivor count under setting [7] is 1 of 6.
Still for that read-out and setting: to `O=C(N/N=C/c1ccco1)C1CCCO1` (centres undefined) belongs 0 of 6.
As to `COC(=O)c1ccccc1N=NNc1cccc(SC)c1`, the survivor count under setting [8] is 5 of 6.
As for `CC[N+](C)(CC)CCC[n+]1c(-c2ccccc2)c2cc(N)ccc2c2ccc(N)cc21`, the survivor count reads like this: (T/C endpoint: mean survival time, dose: 12.5 mg/kg/injection, schedule: Q01DX009 (ip), vehicle: saline) 2 of 6; (T/C endpoint: mean survival time, dose: 25.0 mg/kg/injection, schedule: Q04DX003 (ip), vehicle: water) 1 of 6; under setting [3], 0 of 6; under setting [9], 0 of 6; under setting [10], 0 of 6.
`CC(C)(C)NC(=O)CCC(CC(=O)NC(C)(C)C)S(=O)(=O)O` (centres undefined): the survivor count under setting [10] is reported as 0 of 6.
Regarding `CC1(C)N=C(c2ccccc2)C(c2ccccc2)=N1`, the survivor count under setting [7] is listed as 3 of 6.
With `CN(C)Cc1cc(C(C)(C)C)c(O)c(C(C)(C)C)c1`, the survivor count was 2 of 6 (T/C endpoint: mean survival time, dose: 200.0 mg/kg/injection, schedule: Q04DX003 (ip), vehicle: saline with Tween-80) and 0 of 6 under setting [8].
As for `COc1cc(NC(=O)O/N=C/c2ccccn2)cc(OC)c1OC`, under setting [6], the survivor count is recorded as 5 of 6.
Consider `C/C=C/c1cc(C)cc(C)c1OC(C)CC` (centres undefined), for which the T/C (T/C endpoint: mean survival time, dose: 400.0 mg/kg/injection, schedule: Q04DX002 (ip), vehicle: saline with Tween-80) is 125 % of control.
On to `N#CCc1ccc(N=Cc2ccc([N+](=O)[O-])s2)cc1`, for which the survivor count reads like this: (T/C endpoint: mean survival time, dose: 100.0 mg/kg/injection, schedule: Q04DX003 (ip), vehicle: Klucel (hydroxypropylcellulose) (HPC)) 4 of 6; (T/C endpoint: mean survival time, dose: 100.0 mg/kg/injection, schedule: Q04DX003 (ip), vehicle: saline with Tween-80) 0 of 6; (T/C endpoint: mean survival time, dose: 200.0 mg/kg/injection, schedule: Q04DX003 (ip), vehicle: Klucel (hydroxypropylcellulose) (HPC)) 0 of 6; (T/C endpoint: mean survival time, dose: 400.0 mg/kg/injection, schedule: Q04DX003 (ip), vehicle: Klucel (hydroxypropylcellulose) (HPC)) 0 of 6.
For `ClCC1=NCCCN1`, the survivor count is reported as 2 of 3 (T/C endpoint: mean survival time, dose: 200.0 mg/kg/injection, schedule: Q04DX002 (ip), vehicle: Klucel (hydroxypropylcellulose) (HPC)) and 0 of 3 (T/C endpoint: mean survival time, dose: 400.0 mg/kg/injection, schedule: Q04DX002 (ip), vehicle: Klucel (hydroxypropylcellulose) (HPC)).
As to `CC1(C)CC(=O)CC(C)(C)N1`, under setting [10], the survivor count is recorded as 4 of 6.
On to `Cn1cnccc1=O`, for which the survivor count (T/C endpoint: mean survival time, dose: 100.0 mg/kg/injection, schedule: Q01DX009 (ip), vehicle: water) was 6 of 6; the survivor count (T/C endpoint: mean survival time, dose: 200.0 mg/kg/injection, schedule: Q01DX009 (ip), vehicle: water) was 6 of 6; the survivor count (T/C endpoint: mean survival time, dose: 400.0 mg/kg/injection, schedule: Q01DX009 (ip), vehicle: water) is given as 6 of 6.
In the case of `CCN(CC)CC[N-]CCN(CC)CC.[Cl][Pt]`, the survivor count under setting [4] is recorded as 0 of 6 and the survivor count under setting [5] is on record as 0 of 6.
For `CCN(CC)CCCNC(C)=O`, the survivor count (T/C endpoint: mean survival time, dose: 400.0 mg/kg/injection, schedule: Q01DX009 (ip), vehicle: saline) was 6 of 6.
On to `O=[N+]([O-])c1ccc(SNc2ccc(NSc3ccc([N+](=O)[O-])cc3)cc2)cc1`, for which the survivor count (T/C endpoint: mean survival time, dose: 100.0 mg/kg/injection, schedule: Q01DX001 (ip), vehicle: saline with Tween-80) was 2 of 6.
Consider `CCOc1cc(N2CCOCC2)c(OCC)cc1N`, for which the survivor count is given as 3 of 6 (T/C endpoint: mean survival time, dose: 50.0 mg/kg/injection, schedule: Q04DX003 (ip), vehicle: other); 1 of 6 under setting [3]; 0 of 6 under setting [9]; 0 of 6 under setting [10].
As to `CCOS(=O)(=O)CCCCS(=O)(=O)OCC`, the survivor count is on record as 0 of 6 (T/C endpoint: median survival time, dose: 100.0 mg/kg/injection, schedule: Q01DX009 (ip), vehicle: Klucel (hydroxypropylcellulose) (HPC)); 0 of 6 (T/C endpoint: median survival time, dose: 200.0 mg/kg/injection, schedule: Q01DX009 (ip), vehicle: Klucel (hydroxypropylcellulose) (HPC)); 0 of 6 (T/C endpoint: median survival time, dose: 400.0 mg/kg/injection, schedule: Q01DX009 (ip), vehicle: Klucel (hydroxypropylcellulose) (HPC)).
